Some results were stated once for a whole list of compounds, not compound by compound.
Biological target: T1, human NLRP3 (Homo sapiens, UniProt Q96P20)
T1 construct: Human whole blood is drawn from healthy volunteers after obtaining written informed consent; from tissue
Assay: Human Whole Blood (hWB) NLRP3 Assay
Type: cell-based
Settings: Table E1
Procedure: (ii) Human Whole Blood (hWB) NLRP3 Assay
Human whole blood is drawn from healthy volunteers after obtaining written informed consent. Heparin lithium coated tubes are used to collect blood from volunteers. Blood samples are distributed on 96 well plates using 90 μl per well. Priming is performed by adding 5 μl of LPS (026: B6; Sigma L-2654) at a final concentration of 1 μg/ml for 4.5 hours in a humidified incubator with 37° C. 5% CO2. Thirty minutes prior to NLRP3 activation, 5 μl of a 20× compound solution or vehicle (2% dimethylsulfoxide (DMSO)) is added to each well and plates were incubated on a shaker (450 rpm) in a humidified incubator with 37° C., 5% CO2. Activation is then performed by adding 3.3 μl of a 31× ATP solution per well. At the end of the 30 minutes stimulation, the plates are centrifuged (800 g, 10 min, room temperature) and the plasma from each well is frozen at −80° C. IL-1β levels in the supernatant were analyzed using a mesoscale discovery assay (MSD K151TUK) according to the manufacturers’ instructions.

The chains behind the UniProt entries cited, without tags or fusion partners.
UniProt Q96P20, whole entry: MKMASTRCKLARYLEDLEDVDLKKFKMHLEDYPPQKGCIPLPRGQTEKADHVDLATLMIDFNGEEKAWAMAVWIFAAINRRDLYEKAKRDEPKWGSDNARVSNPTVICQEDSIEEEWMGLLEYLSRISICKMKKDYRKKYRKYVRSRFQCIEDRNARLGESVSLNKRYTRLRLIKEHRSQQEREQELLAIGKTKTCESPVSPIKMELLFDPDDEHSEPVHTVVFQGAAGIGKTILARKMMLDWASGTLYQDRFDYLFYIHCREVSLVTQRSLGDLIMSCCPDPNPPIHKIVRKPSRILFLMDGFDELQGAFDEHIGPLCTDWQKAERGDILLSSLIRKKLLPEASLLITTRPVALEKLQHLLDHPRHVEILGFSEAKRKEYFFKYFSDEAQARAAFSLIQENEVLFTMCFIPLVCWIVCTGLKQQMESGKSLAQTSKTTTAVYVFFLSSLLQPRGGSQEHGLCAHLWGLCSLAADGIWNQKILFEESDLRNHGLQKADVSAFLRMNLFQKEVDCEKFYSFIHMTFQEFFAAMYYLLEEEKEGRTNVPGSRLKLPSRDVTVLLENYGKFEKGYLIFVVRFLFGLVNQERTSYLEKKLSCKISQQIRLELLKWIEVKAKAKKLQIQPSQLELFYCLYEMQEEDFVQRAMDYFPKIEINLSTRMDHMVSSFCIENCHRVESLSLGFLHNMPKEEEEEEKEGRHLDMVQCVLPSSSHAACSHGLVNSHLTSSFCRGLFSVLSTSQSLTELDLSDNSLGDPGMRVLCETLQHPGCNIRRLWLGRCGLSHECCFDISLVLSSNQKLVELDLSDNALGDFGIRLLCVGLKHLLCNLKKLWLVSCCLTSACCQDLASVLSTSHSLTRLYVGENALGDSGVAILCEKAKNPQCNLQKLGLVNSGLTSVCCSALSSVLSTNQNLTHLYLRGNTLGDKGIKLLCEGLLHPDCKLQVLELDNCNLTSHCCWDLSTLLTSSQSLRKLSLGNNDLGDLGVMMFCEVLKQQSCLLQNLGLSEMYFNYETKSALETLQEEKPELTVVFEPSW

Row | SMILES | IC50 [µM]
1 | Oc1cc(Cl)ccc1-c1nnc(N[C@]23CCC(C2)OC3)c2cnccc12 (single isomer, unassigned) [Compound 9A] | > 50
2 | Oc1cc(Cl)ccc1-c1nnc(N[C@@]23CCC(C2)OC3)c2cnccc12 (single isomer, unassigned) [Compound 9B] | > 50

From patent publication US20250257077A1, “BRIDGED BICYCLIC HETEROCYCLOALKYL PYRIDO-[3,4-d]PYRIDAZINE AMINE DERIVATIVES USEFUL AS NLRP3 INHIBITORS” (Ventus Therapeutics U.S., Inc., priority 2022, published 2025)
